Test results reported in the supplement of paper PMC10849652.
The other results are listed elsewhere or left out.

By UniProt entry, the sequences of proteins in these tests, tags left out. Where a name states a change or a piece, a line headed by the entry shows the natural chain unless it says otherwise.
UniProt Q0IIM8: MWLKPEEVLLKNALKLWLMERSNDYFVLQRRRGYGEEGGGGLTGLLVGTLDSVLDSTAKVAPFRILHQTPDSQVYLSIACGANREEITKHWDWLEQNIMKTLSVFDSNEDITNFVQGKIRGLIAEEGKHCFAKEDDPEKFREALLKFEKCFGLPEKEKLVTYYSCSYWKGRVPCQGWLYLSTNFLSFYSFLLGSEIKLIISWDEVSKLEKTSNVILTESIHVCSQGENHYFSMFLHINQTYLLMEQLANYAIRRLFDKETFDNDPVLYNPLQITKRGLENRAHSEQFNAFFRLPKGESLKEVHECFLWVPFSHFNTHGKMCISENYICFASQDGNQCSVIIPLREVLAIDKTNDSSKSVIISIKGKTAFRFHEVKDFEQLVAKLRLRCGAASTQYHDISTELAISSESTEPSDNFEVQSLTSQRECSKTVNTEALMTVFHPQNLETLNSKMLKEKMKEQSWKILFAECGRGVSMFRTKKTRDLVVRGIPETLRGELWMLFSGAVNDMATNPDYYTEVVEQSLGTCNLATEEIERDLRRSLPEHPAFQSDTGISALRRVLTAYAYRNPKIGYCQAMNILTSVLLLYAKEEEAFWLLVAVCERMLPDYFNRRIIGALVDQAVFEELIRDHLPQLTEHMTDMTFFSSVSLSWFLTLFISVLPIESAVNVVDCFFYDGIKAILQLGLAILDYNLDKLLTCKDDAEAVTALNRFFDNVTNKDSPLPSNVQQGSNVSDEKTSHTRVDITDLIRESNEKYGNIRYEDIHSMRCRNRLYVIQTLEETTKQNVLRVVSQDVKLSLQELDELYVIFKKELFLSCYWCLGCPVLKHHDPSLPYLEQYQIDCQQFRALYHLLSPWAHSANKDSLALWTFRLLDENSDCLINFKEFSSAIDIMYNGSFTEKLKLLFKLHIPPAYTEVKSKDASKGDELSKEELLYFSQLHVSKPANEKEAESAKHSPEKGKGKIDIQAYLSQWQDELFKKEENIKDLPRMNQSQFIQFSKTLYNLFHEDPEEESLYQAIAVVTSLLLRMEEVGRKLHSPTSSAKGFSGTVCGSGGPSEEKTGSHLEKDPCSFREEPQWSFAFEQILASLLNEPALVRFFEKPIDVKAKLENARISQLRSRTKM
UniProt Q9BQ70: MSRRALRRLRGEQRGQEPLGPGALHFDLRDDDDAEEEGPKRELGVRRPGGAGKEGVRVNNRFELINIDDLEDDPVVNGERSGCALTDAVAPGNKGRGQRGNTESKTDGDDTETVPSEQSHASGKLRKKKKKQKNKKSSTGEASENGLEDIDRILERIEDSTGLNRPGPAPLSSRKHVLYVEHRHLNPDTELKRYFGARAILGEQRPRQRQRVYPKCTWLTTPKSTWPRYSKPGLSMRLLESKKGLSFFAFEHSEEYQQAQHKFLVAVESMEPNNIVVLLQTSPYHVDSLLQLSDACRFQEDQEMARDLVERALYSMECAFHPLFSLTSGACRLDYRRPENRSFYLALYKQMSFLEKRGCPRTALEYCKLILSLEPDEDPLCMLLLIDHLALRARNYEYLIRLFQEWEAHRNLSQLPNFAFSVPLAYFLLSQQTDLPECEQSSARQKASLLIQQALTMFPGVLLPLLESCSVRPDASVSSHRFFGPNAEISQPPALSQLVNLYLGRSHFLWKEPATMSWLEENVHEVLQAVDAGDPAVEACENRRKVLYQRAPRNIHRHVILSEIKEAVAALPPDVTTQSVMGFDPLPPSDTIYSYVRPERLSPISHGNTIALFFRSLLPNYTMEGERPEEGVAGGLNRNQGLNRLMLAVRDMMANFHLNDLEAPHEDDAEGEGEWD
UniProt Q96BW9: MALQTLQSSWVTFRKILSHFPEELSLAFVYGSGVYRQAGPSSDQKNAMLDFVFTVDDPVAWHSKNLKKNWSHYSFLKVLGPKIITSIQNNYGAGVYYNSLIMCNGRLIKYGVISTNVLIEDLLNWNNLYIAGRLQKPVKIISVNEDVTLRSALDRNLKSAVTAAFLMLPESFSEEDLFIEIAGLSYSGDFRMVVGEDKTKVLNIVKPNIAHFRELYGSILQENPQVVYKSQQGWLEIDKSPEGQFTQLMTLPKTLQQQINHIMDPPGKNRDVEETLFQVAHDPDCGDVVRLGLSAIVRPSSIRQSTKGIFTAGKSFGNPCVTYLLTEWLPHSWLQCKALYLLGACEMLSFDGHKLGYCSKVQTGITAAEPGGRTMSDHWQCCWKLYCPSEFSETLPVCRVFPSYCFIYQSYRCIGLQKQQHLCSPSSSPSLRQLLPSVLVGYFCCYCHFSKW
UniProt Q15545, whole entry, looked up: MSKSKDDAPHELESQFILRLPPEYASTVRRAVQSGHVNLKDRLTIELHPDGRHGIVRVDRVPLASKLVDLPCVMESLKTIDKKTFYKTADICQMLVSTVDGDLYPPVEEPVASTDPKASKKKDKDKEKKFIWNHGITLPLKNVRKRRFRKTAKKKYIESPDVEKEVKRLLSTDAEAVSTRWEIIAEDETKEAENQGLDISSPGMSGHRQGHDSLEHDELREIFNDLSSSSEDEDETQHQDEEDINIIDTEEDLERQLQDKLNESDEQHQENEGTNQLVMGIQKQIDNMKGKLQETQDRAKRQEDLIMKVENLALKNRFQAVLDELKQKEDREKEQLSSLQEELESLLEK
UniProt Q99426: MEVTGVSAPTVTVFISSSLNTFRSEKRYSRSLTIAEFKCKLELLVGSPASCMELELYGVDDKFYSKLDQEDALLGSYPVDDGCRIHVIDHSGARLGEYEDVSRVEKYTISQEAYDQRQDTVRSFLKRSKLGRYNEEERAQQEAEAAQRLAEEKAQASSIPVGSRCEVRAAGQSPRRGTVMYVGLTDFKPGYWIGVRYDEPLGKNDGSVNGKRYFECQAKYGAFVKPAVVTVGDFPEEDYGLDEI
UniProt Q6NXT6: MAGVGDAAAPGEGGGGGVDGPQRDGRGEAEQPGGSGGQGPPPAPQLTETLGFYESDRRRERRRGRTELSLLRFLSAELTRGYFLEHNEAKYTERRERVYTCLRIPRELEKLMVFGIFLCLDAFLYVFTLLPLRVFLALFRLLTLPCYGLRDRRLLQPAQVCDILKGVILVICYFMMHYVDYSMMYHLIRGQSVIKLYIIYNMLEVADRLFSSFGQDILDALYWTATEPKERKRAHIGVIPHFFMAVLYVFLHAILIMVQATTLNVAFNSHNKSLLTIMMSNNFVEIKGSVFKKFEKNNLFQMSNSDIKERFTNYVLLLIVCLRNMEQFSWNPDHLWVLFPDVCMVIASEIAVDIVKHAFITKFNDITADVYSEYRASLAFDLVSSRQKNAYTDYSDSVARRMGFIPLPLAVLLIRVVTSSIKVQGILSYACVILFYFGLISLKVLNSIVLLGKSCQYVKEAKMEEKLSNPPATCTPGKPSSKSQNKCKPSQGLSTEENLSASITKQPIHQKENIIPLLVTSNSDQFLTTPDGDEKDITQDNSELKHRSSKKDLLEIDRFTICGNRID
UniProt Q9NU19: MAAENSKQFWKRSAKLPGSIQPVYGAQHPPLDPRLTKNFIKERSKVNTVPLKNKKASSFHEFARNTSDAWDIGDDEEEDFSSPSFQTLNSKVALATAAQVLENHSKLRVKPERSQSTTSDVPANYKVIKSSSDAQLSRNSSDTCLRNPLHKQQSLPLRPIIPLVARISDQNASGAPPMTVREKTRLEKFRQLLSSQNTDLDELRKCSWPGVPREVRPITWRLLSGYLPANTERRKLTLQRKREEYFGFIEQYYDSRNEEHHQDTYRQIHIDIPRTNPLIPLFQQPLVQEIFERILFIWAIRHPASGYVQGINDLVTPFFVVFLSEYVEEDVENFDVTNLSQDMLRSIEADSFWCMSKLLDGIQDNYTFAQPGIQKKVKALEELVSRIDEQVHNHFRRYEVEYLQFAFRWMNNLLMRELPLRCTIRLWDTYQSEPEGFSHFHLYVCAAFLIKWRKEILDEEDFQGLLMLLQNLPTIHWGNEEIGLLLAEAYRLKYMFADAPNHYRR
UniProt O60347: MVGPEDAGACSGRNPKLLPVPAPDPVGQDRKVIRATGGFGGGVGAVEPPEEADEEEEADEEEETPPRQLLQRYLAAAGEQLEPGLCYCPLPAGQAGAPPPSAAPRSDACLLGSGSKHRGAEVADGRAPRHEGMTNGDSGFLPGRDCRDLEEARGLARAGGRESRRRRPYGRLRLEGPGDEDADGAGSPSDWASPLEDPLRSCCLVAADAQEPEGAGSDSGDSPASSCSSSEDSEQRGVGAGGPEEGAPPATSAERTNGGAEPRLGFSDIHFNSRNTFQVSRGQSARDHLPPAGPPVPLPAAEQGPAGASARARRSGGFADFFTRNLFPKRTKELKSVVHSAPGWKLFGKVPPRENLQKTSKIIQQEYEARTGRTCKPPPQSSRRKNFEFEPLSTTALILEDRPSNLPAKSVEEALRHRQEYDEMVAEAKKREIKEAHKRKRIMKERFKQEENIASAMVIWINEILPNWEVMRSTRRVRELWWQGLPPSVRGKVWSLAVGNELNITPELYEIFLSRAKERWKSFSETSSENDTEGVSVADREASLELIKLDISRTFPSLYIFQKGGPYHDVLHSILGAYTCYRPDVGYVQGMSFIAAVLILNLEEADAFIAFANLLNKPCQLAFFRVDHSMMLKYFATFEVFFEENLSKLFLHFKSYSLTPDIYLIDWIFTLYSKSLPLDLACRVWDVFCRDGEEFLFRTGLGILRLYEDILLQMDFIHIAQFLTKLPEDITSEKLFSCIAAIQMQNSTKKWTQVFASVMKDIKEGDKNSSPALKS
UniProt O14907: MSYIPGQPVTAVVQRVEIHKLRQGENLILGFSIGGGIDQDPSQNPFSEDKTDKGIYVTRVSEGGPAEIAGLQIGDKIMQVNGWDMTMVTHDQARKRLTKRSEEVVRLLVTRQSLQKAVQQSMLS
UniProt Q9Y6J9: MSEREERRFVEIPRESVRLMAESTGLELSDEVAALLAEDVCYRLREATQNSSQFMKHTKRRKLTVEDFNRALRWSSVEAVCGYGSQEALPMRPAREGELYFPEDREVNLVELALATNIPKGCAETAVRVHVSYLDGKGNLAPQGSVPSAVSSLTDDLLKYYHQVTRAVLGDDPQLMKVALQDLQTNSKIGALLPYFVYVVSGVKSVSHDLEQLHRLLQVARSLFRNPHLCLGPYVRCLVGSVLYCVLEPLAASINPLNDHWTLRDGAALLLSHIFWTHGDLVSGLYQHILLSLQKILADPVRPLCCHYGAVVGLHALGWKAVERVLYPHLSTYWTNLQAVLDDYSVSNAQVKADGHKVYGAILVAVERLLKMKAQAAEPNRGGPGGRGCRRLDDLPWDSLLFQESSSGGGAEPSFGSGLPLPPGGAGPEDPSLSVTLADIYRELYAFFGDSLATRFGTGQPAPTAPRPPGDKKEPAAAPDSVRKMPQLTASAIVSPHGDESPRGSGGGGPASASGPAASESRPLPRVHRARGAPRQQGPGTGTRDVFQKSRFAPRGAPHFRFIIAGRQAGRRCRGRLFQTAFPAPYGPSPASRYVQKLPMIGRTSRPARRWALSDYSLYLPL
UniProt P19532: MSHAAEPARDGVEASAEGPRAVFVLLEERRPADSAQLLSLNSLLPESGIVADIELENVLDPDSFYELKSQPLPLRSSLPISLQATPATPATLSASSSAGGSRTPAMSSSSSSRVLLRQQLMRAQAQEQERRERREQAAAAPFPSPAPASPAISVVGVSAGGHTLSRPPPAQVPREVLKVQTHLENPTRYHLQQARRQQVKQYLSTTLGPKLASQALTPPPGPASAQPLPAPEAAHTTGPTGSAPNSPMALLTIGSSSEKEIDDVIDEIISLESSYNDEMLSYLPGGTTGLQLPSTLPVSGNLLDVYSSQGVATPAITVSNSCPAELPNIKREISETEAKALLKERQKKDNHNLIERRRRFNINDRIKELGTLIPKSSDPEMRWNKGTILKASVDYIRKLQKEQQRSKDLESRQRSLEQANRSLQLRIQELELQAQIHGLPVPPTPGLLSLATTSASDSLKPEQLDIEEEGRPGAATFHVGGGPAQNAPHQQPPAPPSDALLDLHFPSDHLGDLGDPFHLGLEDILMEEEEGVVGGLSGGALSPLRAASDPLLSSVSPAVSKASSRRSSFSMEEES
UniProt Q8WUA7: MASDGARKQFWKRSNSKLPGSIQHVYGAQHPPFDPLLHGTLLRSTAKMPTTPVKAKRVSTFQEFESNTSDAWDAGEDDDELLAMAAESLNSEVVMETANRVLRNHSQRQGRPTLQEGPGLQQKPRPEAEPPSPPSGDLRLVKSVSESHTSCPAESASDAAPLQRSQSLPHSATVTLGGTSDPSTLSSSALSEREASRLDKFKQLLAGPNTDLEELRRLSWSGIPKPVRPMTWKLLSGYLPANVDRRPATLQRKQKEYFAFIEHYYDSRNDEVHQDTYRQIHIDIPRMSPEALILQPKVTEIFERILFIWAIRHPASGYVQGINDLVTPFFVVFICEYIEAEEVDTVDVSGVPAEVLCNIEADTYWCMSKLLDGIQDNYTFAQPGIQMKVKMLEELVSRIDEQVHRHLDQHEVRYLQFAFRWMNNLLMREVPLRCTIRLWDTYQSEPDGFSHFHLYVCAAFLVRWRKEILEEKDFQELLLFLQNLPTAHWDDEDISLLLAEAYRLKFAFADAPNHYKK

Tests used:
Test in all cases: log2 fold change, soluble protein after heating vs DMSO (PISA); higher = thermal stabilisation; K562 lysate, 10 uM; active = over 0.2 and 3.5 SD of the protein, either way, in both replicates (recomputed)
[1] = compound: CN1CC[C@H](c2c(O)cc(O)c3c(=O)cc(-c4ccccc4Cl)oc23)[C@H](O)C1 [alvocidib]
Procedure, shortened: (§1)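 Quantification was by TMTpro 16plex LC-MS/MS with equalised channel sums, applied to the supernatant after 21,000xg for 90 min. Samples were crude K562 extract at 1 mg/mL protein in PBS pH 7.4 with 1 mM MgCl2, treated with 10 μM compound for 30 min, heated for 3 min across 48°C-58°C, pooled and brought to 0.5% NP-40 at 4°C. Values are log-two fold changes in thermal stability relative to solvent controls, from duplicates.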

[2] = compound: CN1CCc2c(c3ccccc3n2Cc2ccc(C(=O)NO)cc2)C1 [Tubastatin A]
Procedure, shortened: as §1

[3] = compound: CNC(=O)C1=CC=CC=C1NC2=NC(=NC=C2Cl)NC3=C(C=C(C=C3)N4CCOCC4)OC
Procedure, shortened: as §1

[4] = compound: CNC(=O)c1ccc(Nc2ncc(C(F)(F)F)c(NCc3nccnc3N(C)S(C)(=O)=O)n2)cc1 [defactinib]
Procedure, shortened: as §1

[5] = compound: CNc1nc(-c2ccc3c(N)n[nH]c3c2)cc(N2C[C@@H](C(=O)NC3CCCCC3)CC[C@H]2C)n1
Procedure, shortened: as §1

[6] = compound: COC(=O)N[C@@H](C)CNc1nccc(-c2cn(C(C)C)nc2-c2cc(Cl)cc(NS(C)(=O)=O)c2F)n1 [encorafenib]
Procedure, shortened: as §1

[7] = compound: COC(=O)[C@H](CCSC)NC(=O)C1=C(C=C(C=C1)NC[C@H](CS)N)C2=CC=CC=C2
Procedure, shortened: as §1

[8] = compound: COc1cc(Nc2ncc3c(n2)-c2ccc(Cl)cc2C(c2c(F)cccc2OC)=NC3)ccc1C(=O)O [alisertib]
Procedure, shortened: as §1

[9] = compound: COc1cc2nc(-c3cc(F)ccc3O)nc(N[C@@H]3CNC[C@H]3C(C)(C)O)c2cc1OC
Procedure, shortened: as §1

[10] = compound: COc1cc2ncnc(Nc3ccc(F)c(Cl)c3)c2cc1OCCCN1CCOCC1 [gefitinib]
Procedure, shortened: as §1

[11] = compound: CS(=O)(=O)CCNCc1ccc(-c2ccc3ncnc(Nc4ccc(OCc5cccc(F)c5)c(Cl)c4)c3c2)o1 [lapatinib]
Procedure, shortened: as §1

[12] = compound: CS(=O)(=O)N1CCN(Cc2cc3nc(-c4cccc5[nH]ncc45)nc(N4CCOCC4)c3s2)CC1 [pictilisib]
Procedure, shortened: as §1

[13] = compound: C[C@@H](Oc1cc(-c2cnn(C3CCNCC3)c2)cnc1N)c1c(Cl)ccc(F)c1Cl [crizotinib]
Procedure, shortened: as §1

[14] = compound: C[C@H](C1=CC=C(C=C1)C(=O)NC2=C3C=CNC3=NC=C2)N
Procedure, shortened: as §1

[15] = compound: C[C@H](Nc1ncnc2nc[nH]c12)c1cc2cccc(Cl)c2c(=O)n1-c1ccccc1 [duvelisib]
Procedure, shortened: as §1

[16] = compound: Cc1cc(Nc2cc(CN3CCOCC3)c3nc(C)c(Cc4ccc(Cl)cc4F)n3n2)n[nH]1 [gandotinib]
Procedure, shortened: as §1

[17] = compound: Cc1cc(Nc2cc(N3CCN(C)CC3)nc(Sc3ccc(NC(=O)C4CC4)cc3)n2)n[nH]1 [tozasertib]
Procedure, shortened: as §1

[18] = compound: Cc1ccc(-n2nc(C(C)(C)C)cc2NC(=O)Nc2ccc(OCCN3CCOCC3)c3ccccc23)cc1 [doramapimod]
Procedure, shortened: as §1

[19] = compound: Cc1ccc(NC(=O)c2ccc(CN3CC[C@H](N(C)C)C3)c(C(F)(F)F)c2)cc1Nc1nccc(-c2cncnc2)n1 [bafetinib]
Procedure, shortened: as §1

[20] = compound: Cc1cccc(CC(=O)N2CCc3c2ccc(-c2cn(C)c4ncnc(N)c24)c3F)n1
Procedure, shortened: as §1

Measured: log2 fold change

TBC1D8B (UniProt Q0IIM8)
inactive: [1] -0.134 | [2] 0.051 | [3] -0.017 | [4] -0.057 | [5] 0.078 | [6] -0.032 | [7] 0.033 | [8] 0.11 | [9] 0.026 | [10] 0.008 | [11] 0 | [12] -0.072 | [13] 0.013 | [14] -0.229 | [15] 0.007 | [16] 0.176 | [17] -0.011 | [18] 0.014 | [19] 0.03 | [20] 0.097

TCF25 (UniProt Q9BQ70)
inactive: [1] 0.01 | [2] 0.01 | [3] 0 | [4] 0 | [5] -0.026 | [6] 0.05 | [7] -0.004 | [8] 0.025 | [10] 0.114 | [12] 0.015 | [13] -0.092 | [14] 0.109 | [15] -0.004 | [16] 0.006 | [17] 0.304 | [18] 0.033 | [19] 0.006 | [20] 0.215

TAMM41 isoform 3 (UniProt Q96BW9)
inactive: [1] -0.041 | [2] 0.116 | [3] -0.06 | [4] -0.02 | [5] -0.011 | [6] 0.007 | [7] 0.083 | [8] 0.011 | [9] -0.106 | [10] 0.032 | [11] 0.048 | [12] 0.125 | [13] -0.013 | [14] 0.005 | [15] 0.014 | [16] -0.026 | [17] -0.038 | [18] -0.044 | [19] -0.095 | [20] -0.013

TAF7 (UniProt Q15545)
inactive: [1] -0.011 | [2] 0.023 | [3] 0 | [4] 0.025 | [5] -0.006 | [6] 0.057 | [7] -0.024 | [8] 0.016 | [9] -0.028 | [10] 0.074 | [11] 0.028 | [12] -0.011 | [13] 0.028 | [14] -0.04 | [15] -0.004 | [16] 0.089 | [17] 0.038 | [18] 0.066 | [19] -0.027 | [20] -0.04

TBCB (UniProt Q99426)
inactive: [1] -0.057 | [2] -0.02 | [3] -0.011 | [4] 0.001 | [5] -0.061 | [6] 0.002 | [7] -0.116 | [8] -0.048 | [9] 0.011 | [10] 0.024 | [11] 0.001 | [12] 0.009 | [13] -0.009 | [14] -0.098 | [15] 0.03 | [16] 0.022 | [17] 0.023 | [18] 0.008 | [19] 0.021 | [20] 0.031

TAPT1 (UniProt Q6NXT6)
inactive: [1] -0.101 | [2] 0.037 | [3] -0.086 | [4] 0.047 | [5] 0.056 | [6] 0.053 | [7] -0.074 | [8] -0.016 | [9] -0.006 | [10] 0.055 | [11] -0.007 | [12] 0.025 | [13] -0.044 | [14] -0.196 | [15] 0.012 | [16] 0.057 | [17] 0.031 | [18] 0.024 | [19] 0.01 | [20] 0.093

TAOK1 (UniProt Q7L7X3)
inactive: [1] -0.018 | [2] 0.006 | [3] -0.06 | [4] -0.05 | [5] -0.008 | [6] 0.03 | [7] 0.01 | [8] 0.019 | [9] -0.025 | [10] -0.01 | [11] -0.021 | [12] -0.004 | [13] -0.06 | [14] 0.055 | [15] 0.001 | [16] -0.136 | [17] -0.01 | [18] 0.028 | [19] -0.019 | [20] 0.006

TBC1D22B (UniProt Q9NU19)
inactive: [1] 0.037 | [2] 0.007 | [3] -0.033 | [4] 0.016 | [5] -0.003 | [6] 0.055 | [7] -0.009 | [8] 0.009 | [9] 0.013 | [10] -0.035 | [11] -0.042 | [12] 0.012 | [13] -0.027 | [14] 0.009 | [15] 0 | [16] -0.012 | [17] 0 | [18] 0.01 | [19] -0.088 | [20] 0.038

TES (UniProt Q9UGI8)
inactive: [1] -0.043 | [2] 0.035 | [3] -0.003 | [4] -0.045 | [5] 0.018 | [6] -0.014 | [7] -0.043 | [8] 0 | [9] 0 | [10] -0.029 | [11] 0.011 | [12] 0.003 | [13] -0.005 | [14] -0.056 | [15] 0.01 | [16] 0.011 | [17] 0.017 | [18] 0 | [19] -0.003 | [20] 0.022

TBC1D12 (UniProt O60347)
inactive: [1] -0.189 | [2] 0.008 | [3] 0.019 | [4] 0.016 | [5] 0.076 | [6] -0.079 | [7] 0.092 | [9] 0.204 | [11] -0.312 | [13] 0.001 | [14] 0.058 | [15] -0.058 | [16] -0.055 | [17] -0.053 | [18] 0.001 | [20] 0.239

TFG (UniProt Q92734)
inactive: [1] -0.021 | [2] 0.044 | [3] -0.011 | [4] 0 | [5] 0.022 | [6] -0.002 | [7] -0.032 | [8] -0.034 | [9] 0.015 | [10] -0.011 | [11] 0.009 | [12] -0.008 | [13] 0.019 | [14] -0.015 | [15] 0.02 | [16] 0.022 | [17] -0.009 | [18] -0.027 | [19] 0.043 | [20] -0.038

TAX1BP3 (UniProt O14907)
inactive: [1] 0.059 | [2] -0.275 | [3] 0.009 | [4] 0.087 | [5] -0.06 | [6] 0.071 | [7] -0.165 | [9] 0.053 | [11] -0.002 | [12] -0.126 | [14] -0.079 | [15] -0.06 | [16] -0.086 | [17] -0.008 | [19] 0.007 | [20] 0.032

TAF6L (UniProt Q9Y6J9)
inactive: [1] 0.018 | [2] -0.109 | [3] -0.035 | [4] 0.001 | [5] -0.116 | [6] 0.096 | [7] -0.051 | [8] 0.006 | [9] 0.006 | [10] -0.046 | [11] -0.044 | [12] -0.091 | [13] 0.035 | [14] 0.037 | [15] 0.024 | [16] -0.042 | [17] 0.017 | [18] -0.019 | [19] -0.009 | [20] 0.028

TBC1D17 (UniProt Q9HA65)
inactive: [1] 0.012 | [2] -0.04 | [3] 0.003 | [4] 0.159 | [5] -0.024 | [6] 0.068 | [7] -0.056 | [8] 0.008 | [9] 0.024 | [10] -0.06 | [11] 0.012 | [12] -0.037 | [13] -0.001 | [14] 0.033 | [15] 0.001 | [16] -0.075 | [17] 0.041 | [18] 0.024 | [19] 0.002 | [20] -0.017

TFE3 (UniProt P19532)
inactive: [1] 0.031 | [2] 0.019 | [3] 0.07 | [4] -0.048 | [5] 0.045 | [6] -0.019 | [7] -0.159 | [8] 0.041 | [9] 0.109 | [10] -0.07 | [11] 0.004 | [12] -0.042 | [13] 0.134 | [14] -0.072 | [15] -0.091 | [16] 0.051 | [17] -0.068 | [18] 0.121 | [19] 0.049 | [20] 0.016

TBC1D22A (UniProt Q8WUA7)
inactive: [1] -0.103 | [2] 0.023 | [3] -0.022 | [4] 0.045 | [5] 0.053 | [6] 0.081 | [7] -0.047 | [8] 0.002 | [9] -0.011 | [10] 0.063 | [11] 0.021 | [12] -0.043 | [13] 0.032 | [14] 0.01 | [15] 0.007 | [16] -0.012 | [17] -0.012 | [18] -0.01 | [19] 0.071 | [20] 0.027
